# Record: PubChem BioAssay AID686943 (Drosophila RNAi Screening Center, 2013)
# Assay: 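Knockdowns that increase or decrease active ERK after insulin receptor stimulation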 (primary screen)
# System: Drosophila S2R+ haemocyte-like cells expressing YFP-tagged ERK (Rolled)
# Knock-down reagent: long dsRNA against Drosophila genes
# Conditions: insulin stimulation versus unstimulated cells; dose and duration not given
# Measurement: 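Antibody staining for doubly phosphorylated ERK divided by ERK-YFP signal, as plate z-scores, in insulin-treated and untreated cells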
# Scale: replicate 1, z-score of dpERK with insulin: higher = more active ERK per ERK-YFP after insulin
# The screen tested about 23,000 reagents; this is an unselected part of those that have a named target and a result. 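Extra replicates exist only for a retested subset of genes; insulin dose and duration not given; both raised and lowered dpERK matter.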 Names joined by + are all predicted targets of the reagent. Further read-outs or replicates are left out here. The record does not give: the amount of reagent, the time to read-out.
gene,amplicon,"replicate 1, z-score of dpERK with insulin"
betaTry,DRSC07582,1.02
betaTry,DRSC22377,0.17
tgo,DRSC17077,1.88
Wdr81,DRSC02985,-0.97
CG14227,DRSC19584,1.06
CG4612,DRSC04478,-1.92
CG14331,DRSC14810,0.28
Charon,DRSC00679,0.29
CG7328,DRSC10812,0.12
MFS9,DRSC15560,-0.09
CG14567,DRSC11728,0.33
Lrp4,DRSC20118,-0.21
CG9581,DRSC20695,0.21
CG9581,DRSC22247,-0.32
CG14568,DRSC11729,-0.17
colt,DRSC00808,0.18
park + Targ3,DRSC11617,0.28
CG3491,DRSC01934,-1.51
trc,DRSC11406,0.77
GCC185,DRSC15493,0.08
CG9436,DRSC05005,0.35
Ptp4E,DRSC18701,-0.14
CG32099,DRSC21352,0.53
